Source: the supplement of paper PMC5949888
Most values lie at the floor of the assay. Slopes are relative: functional sequences can read slightly below zero.

Each substance was assayed on Saccharomyces cerevisiae PS128 hsf1 delta, HSF1(1-493) fusion (assay: growth estimate (transactivation domain function in HSF1 fusion, heat-shock survival) (a.u. (slope of normalised read count over time)); higher = stronger growth at 37°C, i.e. more transactivation activity). Details: library: random library.
Protocol: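 Random 60-nt DNA library encoding peptides of up to 20 aa, fused to the C-terminus of yeast HSF1 residues 1-493 (C-terminal TAD deleted) and expressed from the native HSF1 promoter on a CEN plasmid in hsf1-deleted S. cerevisiae PS128. Cells were selected at 37°C on -trp 5-FOA plates for 0, 2, 4, 6 and 8 days and amplicons were sequenced. Growth estimate is the slope of a robust linear fit of total-sum-normalised read counts (normalised to the first time point) over time, using at least 2 replicates. Sequences are classed functional (TAD activity) above a threshold of -0.13, set from stop-codon control sequences.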

| Substance | growth estimate |
| --- | --- |
| CVDLIIIAFGRSIARRKHGA | < -0.25 |
| CVGMQIASTEIFVCN | < -0.25 |
| CVGNSWGLLTRHFRETGRAQ | < -0.25 |
| CVGVYGGLAVGNRLQRRPLG | < -0.25 |
| CVHKWGGAGCILKVEGRL | < -0.25 |
| CVILYRTGG | < -0.25 |
| CVKDYRVYCRD | < -0.25 |
| CVLKARLRVKMERTS | < -0.25 |
| CVLLSALIICYLLNFVTFSY | < -0.25 |
| CVLT | < -0.25 |
| CVMDRSATVSDASFS | < -0.25 |
| CVMHLYRGMLDGRRIRMYMP | < -0.25 |
| CVPAGSPPRSGATHLGQERG | < -0.25 |
| CVPHTWARERSIPQIPAPSD | < -0.25 |
| CVPIKEVVQKFVLTLDFAHL | < -0.25 |
| CVPVQTGPHRTPVIRC | < -0.25 |
| CVQ | < -0.25 |
| CVRNDFNLLIRIPVASLLLQ | -0.226 |
| CVRQDREYCTS | < -0.25 |
| CVRTKSGGGPLQARSINTVA | < -0.25 |
| CVRYQGCAHLLCVTPLHNQM | < -0.25 |
| CVSRKAFIPGTRRTHLRVCH | < -0.25 |
| CVSTFPVKSLDYTRRGCAGR | < -0.25 |
| CVTRLVLANWFDVLNPLKYS | < -0.25 |

For reference, some entries already given:

| Substance | growth estimate |
| --- | --- |
| CVRQDREYCTS | < -0.25 |
| CVRTKSGGGPLQARSINTVA | < -0.25 |
| CVRYQGCAHLLCVTPLHNQM | < -0.25 |
| CVSRKAFIPGTRRTHLRVCH | < -0.25 |
| CVSTFPVKSLDYTRRGCAGR | < -0.25 |
| CVTRLVLANWFDVLNPLKYS | < -0.25 |

Continued:

| Substance | growth estimate |
| --- | --- |
| CVVCRGPNDCHELCMRGTLR | < -0.25 |
| CVVG | < -0.25 |
| CVVGEDNFVNVNLWGSHNAF | < -0.25 |
| CVVLIAFQINPLGVVFVLPA | < -0.25 |
| CVVPLGSGFSCRRMIVQVCT | < -0.25 |
| CVVQLCVGALAIVSK | < -0.25 |
| CVVSRVSMLQNLMKRQLVSV | < -0.25 |
| CVVSTSYSRHAGRRQFQIVM | < -0.25 |
| CVVVRSGNQSS | < -0.25 |
| CWFSVAWGAVGGHRFSQRH | < -0.25 |
| CWGPQGRMSTGGGSTVLYAT | < -0.25 |
| CWGQ | < -0.25 |
| CWGRSTTVIRYTAFKPTSWG | < -0.25 |
| CWKTAQARLCPCPRRRGNFL | < -0.25 |
| CWLYLRDELAELVGITAQAA | < -0.25 |
| CWRGARRMNLFTGEAFLPND | -0.187 |
| CWVATAPFLA | < -0.25 |
| CWWASGQLNTPMRTRSSGSA | < -0.25 |
| CWWRRESIS | < -0.25 |
| CYATFRSEGIVREAHRPRRV | < -0.25 |
| CYDLLQT | < -0.25 |
| CYIKSSAHEGLKQVMCGRLS | < -0.25 |
| CYLFYMHT | < -0.25 |
| CYNA | -0.243 |

| Substance | growth estimate |
| --- | --- |
| CYTI | < -0.25 |
| CYWCGHLRVVGTVSNL | -0.231 |
| CYYRPLRGSNNISYIE | < -0.25 |
| DACVERLPRELRFRGVNCAW | < -0.25 |
| DAGGSCVIGSQTAV | < -0.25 |
| DAGIILCARRTSAPVHILFA | < -0.25 |
| DAIANKGL | < -0.25 |
| DALA | < -0.25 |
| DAQCNKDERRGYAVVVQIGR | < -0.25 |
| DAQG | < -0.25 |
| DAQQDLSSEMDREIHGMSAR | < -0.25 |
| DAR | < -0.25 |
| DARQRGSAHLEWILNDARAL | < -0.25 |
| DARVPYRRAQG | < -0.25 |
| DASRRFMSLIPCHDPCPEVT | < -0.25 |
| DATCRGGNSTHAPRPATAVE | < -0.25 |
| DAYKSPRLCTRL | < -0.25 |
| DAYM | < -0.25 |
| DCARW | < -0.25 |
| DCAS | < -0.25 |
| DCAVGLA | -0.243 |
| DCCEAGRRKSKLT | < -0.25 |
| DCDPWLRAMDSYGSWQSTSS | < -0.25 |
| DCFLRFFNSADRVELVLEVR | < -0.25 |

| Substance | growth estimate |
| --- | --- |
| DCGCSYLTV | < -0.25 |
| DCGRRKRKLECAGPSELRSY | < -0.25 |
| DCLMNPYAYDLVGGSPSEDI | < -0.25 |
| DCMPSYSRGYRIGNNFGRSR | < -0.25 |
| DCRAVLVEN | < -0.25 |
| DCRCIFTIQWGGDGGLASRS | < -0.25 |
| DCTSCGS | < -0.25 |
| DCTVDPNTQARANASDWWQD | < -0.25 |
| DCVA | < -0.25 |
| DDAFFRGDNVPGRSRRTPWA | < -0.25 |
| DDGMRKN | < -0.25 |
| DDKLLDFWCGNGCIVSRADV | < -0.25 |
| DDKSVQVVVYSLRSGFGPAQ | -0.246 |
| DDKWTWALIIPSIPVA | < -0.25 |
| DDLISGFSRRLRPAYCDGPS | < -0.25 |
| DDLTASPRNIECLVRHQSNL | < -0.25 |
| DDNRRPLLPGG | < -0.25 |
| DDRRIGSLPFRERFNYQVVQ | < -0.25 |
| DDRSIGRLMTEGTYLRAESA | < -0.25 |
| DEAALRPFEKYLRLRFKDNP | < -0.25 |
| DECQRAVNTEGVLTVAGLII | < -0.25 |
| DEEDVCKMISESMFRVIHPG | < -0.25 |
| DEG | < -0.25 |
